Measurements reported in PubChem BioAssay AID1259405 (NCATS, 2018)

Test: 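Silenced genes that increase secreted GFP made by CHO cells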 (primary screen)
Cells: Chinese hamster CHO-K1 ovary cells with stable secreted eGFP expression
Knock-down reagent: single siRNA against mouse genes, 0.8 pmol siRNA per well (2 µl of 400 nM stock)
Time to read-out: 3 days
Measurement: 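Percent of the per-plate non-targeting control median for intracellular GFP per well by laser scanning cytometry and for cell viability by ATP luminescence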
Direction: GFP, % of control: higher = more GFP per well, higher productivity; viability (ATP), % of control: higher = more viable cells (more ATP)
Rule for the call: 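Called active when intracellular GFP, relative to negative control, is at or above 120%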
This is one part, drawn at random, of about 50,000 reagents tested. About 4,000 of all reagents (8%) count as active. 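Mouse siRNA library applied to hamster cells; one well for each siRNA.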 The numbers tell different reagents against one gene apart. No sequences are given here.

no.	gene symbol	reagent no.	GFP, % of control	viability (ATP), % of control	outcome
1	Cuedc2	1	67.4	93.4	inactive
2	Cuedc2	2	62.4	89.9	inactive
3	Cuedc2	3	67.1	93.3	inactive
4	Krabd5	1	60.7	65	inactive
5	Krabd5	2	62.6	70.2	inactive
6	Krabd5	3	152	53.5	active
7	Ano10	1	108	89.3	inactive
8	Ano10	2	105	87	inactive
9	Ano10	3	89.8	69	inactive
10	Dclre1c	1	80.1	90.5	inactive
11	Dclre1c	2	123	77.7	active
12	Dclre1c	3	97.8	66.3	inactive
13	Myof	1	34.7	28.8	inactive
14	Myof	2	9.41	11.5	inactive
15	Myof	3	79.1	51.1	inactive
16	Mia3	1	61.8	44.6	inactive
17	Mia3	2	50.3	60.5	inactive
18	Mia3	3	95.1	41.5	inactive
19	Cyp2j13	1	113	65.1	inactive
20	Cyp2j13	2	132	81.9	active
21	Cyp2j13	3	78.5	80.8	inactive
22	Gmpr	1	87.8	113	inactive
23	Gmpr	2	131	90.2	active
24	Gmpr	3	85.7	78.8	inactive
25	Ifitm2	1	60.6	70.6	inactive
26	Ifitm2	2	95.9	88.4	inactive
27	Ifitm2	3	81.2	74.5	inactive
28	Prkar1a	1	105	82.7	inactive
29	Prkar1a	2	69.3	65	inactive
30	Cnp	1	103	84.2	inactive
31	Cnp	2	109	98.1	inactive
32	Cnp	3	51.9	53.5	inactive
33	Sprn	1	135	64.4	active
34	Sprn	2	76.2	94.3	inactive
35	Sprn	3	209	131	active

An excerpt from above, showing only “viability (ATP), % of control”.
Cuedc2 #3: 93.3
Krabd5 #1: 65
Krabd5 #2: 70.2
